# According to the supplement of paper PMC10849652:
# Sequences of proteins named here, by UniProt entry; tags and fusion partners are left off. A change or cut given only in a name is not applied to a line headed by its entry.
# UniProt Q9NVS9: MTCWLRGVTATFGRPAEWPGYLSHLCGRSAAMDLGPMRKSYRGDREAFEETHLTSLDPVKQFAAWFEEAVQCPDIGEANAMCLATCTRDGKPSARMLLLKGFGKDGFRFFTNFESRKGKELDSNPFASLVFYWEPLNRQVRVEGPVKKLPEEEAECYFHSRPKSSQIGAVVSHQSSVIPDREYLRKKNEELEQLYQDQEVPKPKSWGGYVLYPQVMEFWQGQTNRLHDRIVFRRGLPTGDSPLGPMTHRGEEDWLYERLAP
# UniProt Q9HCU8: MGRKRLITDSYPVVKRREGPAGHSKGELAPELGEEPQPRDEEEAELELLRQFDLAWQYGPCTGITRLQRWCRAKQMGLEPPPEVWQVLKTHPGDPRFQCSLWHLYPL
# UniProt P62937, whole entry, looked up: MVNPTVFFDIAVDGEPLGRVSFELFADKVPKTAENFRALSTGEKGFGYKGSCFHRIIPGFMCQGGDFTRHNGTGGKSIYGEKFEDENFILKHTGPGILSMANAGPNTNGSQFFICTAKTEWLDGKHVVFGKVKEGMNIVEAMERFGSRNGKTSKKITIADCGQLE
# UniProt Q9NRX1: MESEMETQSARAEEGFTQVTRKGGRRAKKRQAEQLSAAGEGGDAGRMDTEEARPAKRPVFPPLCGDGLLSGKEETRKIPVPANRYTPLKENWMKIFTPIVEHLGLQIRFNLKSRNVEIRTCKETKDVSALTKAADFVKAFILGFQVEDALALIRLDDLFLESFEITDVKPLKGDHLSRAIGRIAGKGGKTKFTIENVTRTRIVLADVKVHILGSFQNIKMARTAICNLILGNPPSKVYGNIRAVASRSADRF
# UniProt P0CG38, whole entry, looked up: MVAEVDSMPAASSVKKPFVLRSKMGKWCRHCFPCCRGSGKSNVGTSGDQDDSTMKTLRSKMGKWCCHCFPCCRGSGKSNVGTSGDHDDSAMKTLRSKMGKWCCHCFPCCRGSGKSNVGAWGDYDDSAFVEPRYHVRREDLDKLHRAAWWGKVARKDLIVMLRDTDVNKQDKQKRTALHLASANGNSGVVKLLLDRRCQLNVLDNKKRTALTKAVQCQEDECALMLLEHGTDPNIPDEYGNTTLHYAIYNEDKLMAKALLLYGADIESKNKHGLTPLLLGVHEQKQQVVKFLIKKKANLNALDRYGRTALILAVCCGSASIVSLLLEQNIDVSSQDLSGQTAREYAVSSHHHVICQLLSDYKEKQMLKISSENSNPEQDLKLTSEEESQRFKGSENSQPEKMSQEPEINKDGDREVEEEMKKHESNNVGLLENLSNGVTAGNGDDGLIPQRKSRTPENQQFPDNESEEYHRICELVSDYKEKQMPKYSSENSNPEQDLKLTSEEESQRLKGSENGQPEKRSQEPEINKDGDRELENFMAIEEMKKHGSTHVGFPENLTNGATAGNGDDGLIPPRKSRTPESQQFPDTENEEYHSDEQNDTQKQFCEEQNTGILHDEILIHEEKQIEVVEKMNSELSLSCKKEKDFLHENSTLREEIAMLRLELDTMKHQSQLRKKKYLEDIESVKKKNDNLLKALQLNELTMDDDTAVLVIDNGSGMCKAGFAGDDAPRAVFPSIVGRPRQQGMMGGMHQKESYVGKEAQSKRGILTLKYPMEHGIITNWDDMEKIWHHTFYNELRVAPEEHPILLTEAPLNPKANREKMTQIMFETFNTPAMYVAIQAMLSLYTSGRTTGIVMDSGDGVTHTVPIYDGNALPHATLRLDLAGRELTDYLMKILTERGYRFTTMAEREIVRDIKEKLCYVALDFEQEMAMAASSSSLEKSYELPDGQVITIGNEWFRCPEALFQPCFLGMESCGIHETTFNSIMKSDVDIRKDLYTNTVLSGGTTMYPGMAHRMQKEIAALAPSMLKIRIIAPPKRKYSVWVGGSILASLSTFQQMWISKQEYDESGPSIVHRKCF
# UniProt O75817: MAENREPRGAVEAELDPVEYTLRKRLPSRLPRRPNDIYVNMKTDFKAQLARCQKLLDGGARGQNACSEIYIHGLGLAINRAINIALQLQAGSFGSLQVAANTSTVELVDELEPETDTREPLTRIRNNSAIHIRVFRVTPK
# UniProt Q9NQ55: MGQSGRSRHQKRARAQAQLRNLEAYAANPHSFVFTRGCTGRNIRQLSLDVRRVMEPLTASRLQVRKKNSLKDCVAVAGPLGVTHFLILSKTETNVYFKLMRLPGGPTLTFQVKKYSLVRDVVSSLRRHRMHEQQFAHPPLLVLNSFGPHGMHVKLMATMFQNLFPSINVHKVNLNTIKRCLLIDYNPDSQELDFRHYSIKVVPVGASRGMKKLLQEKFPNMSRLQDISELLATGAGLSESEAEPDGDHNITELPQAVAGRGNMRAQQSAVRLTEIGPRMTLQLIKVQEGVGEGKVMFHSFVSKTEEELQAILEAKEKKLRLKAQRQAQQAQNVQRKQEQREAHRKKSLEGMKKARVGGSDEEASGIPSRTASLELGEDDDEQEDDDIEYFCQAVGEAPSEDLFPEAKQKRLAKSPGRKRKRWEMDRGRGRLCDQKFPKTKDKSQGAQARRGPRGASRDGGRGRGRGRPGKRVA
# UniProt O15160, whole entry, looked up: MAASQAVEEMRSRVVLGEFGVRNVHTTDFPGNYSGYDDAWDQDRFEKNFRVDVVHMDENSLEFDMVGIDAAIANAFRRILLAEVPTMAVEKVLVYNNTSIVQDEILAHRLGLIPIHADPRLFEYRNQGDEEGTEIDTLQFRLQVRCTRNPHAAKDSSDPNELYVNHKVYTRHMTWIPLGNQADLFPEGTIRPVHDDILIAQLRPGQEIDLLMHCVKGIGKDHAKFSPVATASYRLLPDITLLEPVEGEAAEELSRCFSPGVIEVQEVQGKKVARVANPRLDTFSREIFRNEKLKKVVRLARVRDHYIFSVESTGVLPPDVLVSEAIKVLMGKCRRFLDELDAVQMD
# UniProt Q9NP80: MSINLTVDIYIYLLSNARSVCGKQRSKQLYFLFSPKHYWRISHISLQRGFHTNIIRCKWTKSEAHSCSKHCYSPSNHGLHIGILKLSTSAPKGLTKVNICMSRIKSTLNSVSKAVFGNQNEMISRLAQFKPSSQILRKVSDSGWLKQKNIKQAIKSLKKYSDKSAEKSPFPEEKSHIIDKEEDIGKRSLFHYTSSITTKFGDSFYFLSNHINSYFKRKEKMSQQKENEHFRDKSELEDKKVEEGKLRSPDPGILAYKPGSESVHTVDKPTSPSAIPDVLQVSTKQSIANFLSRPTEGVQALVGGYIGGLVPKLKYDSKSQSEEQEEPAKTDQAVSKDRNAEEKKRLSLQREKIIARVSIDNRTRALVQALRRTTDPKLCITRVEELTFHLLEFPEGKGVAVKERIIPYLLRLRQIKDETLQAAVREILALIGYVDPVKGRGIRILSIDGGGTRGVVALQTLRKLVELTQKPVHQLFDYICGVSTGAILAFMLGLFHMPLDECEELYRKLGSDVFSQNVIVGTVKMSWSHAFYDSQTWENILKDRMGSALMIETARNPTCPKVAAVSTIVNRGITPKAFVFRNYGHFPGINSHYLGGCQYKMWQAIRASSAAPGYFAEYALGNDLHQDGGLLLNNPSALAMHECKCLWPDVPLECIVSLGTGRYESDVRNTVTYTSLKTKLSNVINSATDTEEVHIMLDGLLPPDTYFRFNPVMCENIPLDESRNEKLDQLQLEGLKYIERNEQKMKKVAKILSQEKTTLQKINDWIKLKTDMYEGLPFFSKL
# UniProt O75688: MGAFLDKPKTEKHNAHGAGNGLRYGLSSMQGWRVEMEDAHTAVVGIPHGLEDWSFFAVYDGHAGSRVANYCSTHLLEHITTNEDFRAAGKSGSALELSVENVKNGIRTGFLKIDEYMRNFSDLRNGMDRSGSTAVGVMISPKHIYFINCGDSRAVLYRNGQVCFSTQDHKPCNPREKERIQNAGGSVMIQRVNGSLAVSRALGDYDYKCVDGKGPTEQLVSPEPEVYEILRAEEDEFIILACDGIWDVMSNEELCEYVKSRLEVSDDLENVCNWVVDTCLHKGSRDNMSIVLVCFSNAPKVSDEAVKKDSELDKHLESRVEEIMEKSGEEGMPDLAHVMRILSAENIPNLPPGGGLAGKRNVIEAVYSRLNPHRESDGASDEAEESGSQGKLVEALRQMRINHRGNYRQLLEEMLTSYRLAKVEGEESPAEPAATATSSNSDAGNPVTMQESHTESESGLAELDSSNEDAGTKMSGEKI
# UniProt Q96HA1, whole entry, looked up: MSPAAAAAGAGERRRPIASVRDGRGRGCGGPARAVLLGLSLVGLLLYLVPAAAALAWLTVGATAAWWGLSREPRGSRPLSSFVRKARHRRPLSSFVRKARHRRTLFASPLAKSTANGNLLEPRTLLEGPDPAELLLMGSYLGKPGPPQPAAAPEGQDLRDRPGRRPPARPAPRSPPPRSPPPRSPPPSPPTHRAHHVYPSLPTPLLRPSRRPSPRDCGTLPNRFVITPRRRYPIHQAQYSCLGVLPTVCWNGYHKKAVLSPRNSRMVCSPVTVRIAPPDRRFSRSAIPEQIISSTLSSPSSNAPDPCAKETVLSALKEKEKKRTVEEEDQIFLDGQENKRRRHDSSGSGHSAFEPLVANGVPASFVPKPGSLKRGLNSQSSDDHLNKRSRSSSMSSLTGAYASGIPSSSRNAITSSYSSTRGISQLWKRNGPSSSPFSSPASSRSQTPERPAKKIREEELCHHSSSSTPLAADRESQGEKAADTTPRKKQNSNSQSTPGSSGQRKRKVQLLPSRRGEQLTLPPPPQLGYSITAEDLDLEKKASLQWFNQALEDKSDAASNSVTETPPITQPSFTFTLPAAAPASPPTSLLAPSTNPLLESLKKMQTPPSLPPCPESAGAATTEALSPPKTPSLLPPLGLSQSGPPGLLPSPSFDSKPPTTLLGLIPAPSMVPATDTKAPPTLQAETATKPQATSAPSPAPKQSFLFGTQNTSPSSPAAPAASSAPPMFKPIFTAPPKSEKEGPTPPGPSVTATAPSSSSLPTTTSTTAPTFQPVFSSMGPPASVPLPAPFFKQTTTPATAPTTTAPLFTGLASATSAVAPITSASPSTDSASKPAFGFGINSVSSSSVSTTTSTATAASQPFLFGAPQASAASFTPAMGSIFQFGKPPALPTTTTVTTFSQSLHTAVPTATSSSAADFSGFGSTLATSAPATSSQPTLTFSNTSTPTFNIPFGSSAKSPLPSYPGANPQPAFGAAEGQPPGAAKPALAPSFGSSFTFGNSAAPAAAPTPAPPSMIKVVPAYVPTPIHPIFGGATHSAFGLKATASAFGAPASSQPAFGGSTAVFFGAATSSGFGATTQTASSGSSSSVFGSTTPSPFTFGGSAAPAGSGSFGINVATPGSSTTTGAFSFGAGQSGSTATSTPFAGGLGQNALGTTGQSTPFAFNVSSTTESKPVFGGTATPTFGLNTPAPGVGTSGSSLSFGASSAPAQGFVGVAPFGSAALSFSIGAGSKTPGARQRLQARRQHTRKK
# UniProt Q9NZ53: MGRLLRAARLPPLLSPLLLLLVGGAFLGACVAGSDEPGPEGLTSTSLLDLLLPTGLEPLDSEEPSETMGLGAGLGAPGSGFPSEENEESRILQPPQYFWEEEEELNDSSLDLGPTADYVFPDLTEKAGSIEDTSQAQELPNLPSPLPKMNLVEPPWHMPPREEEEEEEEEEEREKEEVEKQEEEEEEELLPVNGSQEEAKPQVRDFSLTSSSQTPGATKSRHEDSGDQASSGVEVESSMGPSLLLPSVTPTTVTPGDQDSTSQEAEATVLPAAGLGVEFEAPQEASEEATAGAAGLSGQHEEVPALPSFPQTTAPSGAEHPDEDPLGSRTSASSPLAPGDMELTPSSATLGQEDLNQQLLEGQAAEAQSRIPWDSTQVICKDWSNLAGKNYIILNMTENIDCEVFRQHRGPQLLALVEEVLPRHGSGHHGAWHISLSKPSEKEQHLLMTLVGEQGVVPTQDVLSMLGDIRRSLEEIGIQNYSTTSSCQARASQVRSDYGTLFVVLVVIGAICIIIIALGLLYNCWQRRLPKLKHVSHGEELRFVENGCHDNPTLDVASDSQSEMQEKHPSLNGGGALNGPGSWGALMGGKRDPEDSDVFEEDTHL
# UniProt Q96CD2: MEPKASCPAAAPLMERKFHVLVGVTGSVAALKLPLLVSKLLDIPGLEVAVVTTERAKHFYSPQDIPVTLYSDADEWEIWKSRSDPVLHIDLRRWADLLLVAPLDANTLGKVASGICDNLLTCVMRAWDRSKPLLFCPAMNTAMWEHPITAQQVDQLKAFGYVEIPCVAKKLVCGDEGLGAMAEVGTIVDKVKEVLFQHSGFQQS
# UniProt Q9BY77: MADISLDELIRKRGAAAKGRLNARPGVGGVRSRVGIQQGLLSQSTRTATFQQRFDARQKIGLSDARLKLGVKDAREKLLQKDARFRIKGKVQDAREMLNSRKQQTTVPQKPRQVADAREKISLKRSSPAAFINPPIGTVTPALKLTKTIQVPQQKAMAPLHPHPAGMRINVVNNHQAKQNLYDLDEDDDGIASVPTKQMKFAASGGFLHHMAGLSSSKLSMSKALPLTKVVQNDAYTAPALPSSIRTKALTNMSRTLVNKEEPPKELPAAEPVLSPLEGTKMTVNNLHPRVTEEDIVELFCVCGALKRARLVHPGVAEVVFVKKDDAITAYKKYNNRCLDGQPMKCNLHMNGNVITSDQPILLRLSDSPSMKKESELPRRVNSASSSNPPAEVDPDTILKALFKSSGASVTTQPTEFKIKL
# The other results are listed elsewhere or left out.
# Experiments:
# Assay in all cases: log2 fold change, soluble protein after heating vs DMSO (PISA); higher = thermal stabilisation; K562 cells, 10 uM, 30 min; active = over 0.2 and 3.5 SD of the protein, either way, in both replicates (recomputed)
# bafetinib = compound: Cc1ccc(NC(=O)c2ccc(CN3CC[C@H](N(C)C)C3)c(C(F)(F)F)c2)cc1Nc1nccc(-c2cncnc2)n1 [bafetinib]
# How it was run: (§1)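 Soluble protein was defined as the supernatant after 21,000xg for 90 min. It came from K562 cells at 2×10^6 cells/mL given 10 μM compound for 30 min, heated in aliquots for 3 min across 48°C-58°C, pooled, and extracted in PBS with 0.5% NP-40 at 4°C, and was quantified by TMTpro 16plex LC-MS/MS with equalised channel sums. Thermal stability against control samples, from duplicates, is reported as log2 fold change.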
# [1] = compound: Cc1cccc(CC(=O)N2CCc3c2ccc(-c2cn(C)c4ncnc(N)c24)c3F)n1
# How it was run: as §1
# nilotinib = compound: Cc1cn(-c2cc(NC(=O)c3ccc(C)c(Nc4nccc(-c5cccnc5)n4)c3)cc(C(F)(F)F)c2)cn1 [nilotinib]
# How it was run: as §1
# [2] = compound: Cc1nc(Nc2n[nH]c3c2CN(C(=O)N[C@H](CN(C)C)c2ccccc2)C3(C)C)c2sccc2n1
# How it was run: as §1
# dasatinib = compound: Cc1nc(Nc2ncc(C(=O)Nc3c(C)cccc3Cl)s2)cc(N2CCN(CCO)CC2)n1 [dasatinib]
# How it was run: as §1
# [3] = compound: Cc1ncc(-c2ccnc(Nc3ccc(S(C)(=O)=O)cc3)n2)n1C(C)C
# How it was run: as §1
# [4] = compound: Cn1cc(-c2ccc3c(c2)CCN3C(=O)Cc2cccc(C(F)(F)F)c2)c2c(N)ncnc21
# How it was run: as §1
# [5] = compound: Cn1cc(-c2ccc3nnc(C(F)(F)c4ccc5ncccc5c4)n3n2)cn1
# How it was run: as §1
# tipifarnib = compound: Cn1cncc1[C@@](N)(c1ccc(Cl)cc1)c1ccc2c(c1)c(-c1cccc(Cl)c1)cc(=O)n2C [tipifarnib]
# How it was run: as §1
# mubritinib = compound: FC(F)(F)c1ccc(/C=C/c2nc(COc3ccc(CCCCn4ccnn4)cc3)co2)cc1 [mubritinib]
# How it was run: as §1
Target,log2 fold change (bafetinib),log2 fold change [1],log2 fold change (nilotinib),log2 fold change [2],log2 fold change (dasatinib),log2 fold change [3],log2 fold change [4],log2 fold change [5],log2 fold change (tipifarnib),log2 fold change (mubritinib)
POLR1A (UniProt O95602),inactive: -0.11,inactive: 0.004,inactive: -0.051,inactive: 0.046,inactive: 0.046,inactive: -0.003,inactive: -0.16,inactive: -0.057,inactive: 0.019,inactive: 0.069
POLR3H (UniProt Q9Y535),inactive: 0.026,inactive: -0.04,inactive: -0.091,inactive: -0.115,inactive: 0.031,inactive: 0.049,inactive: 0.019,inactive: 0.002,inactive: -0.006,inactive: 0.148
PNPO (UniProt Q9NVS9),inactive: -0.063,inactive: 0.048,inactive: -0.015,inactive: 0.021,inactive: -0.038,inactive: 0.064,inactive: 0.037,inactive: -0.041,inactive: 0.009,inactive: 0.009
POLD4 (UniProt Q9HCU8),inactive: -0.005,inactive: -0.064,inactive: -0.03,inactive: 0.113,inactive: 0.011,inactive: -0.033,inactive: 0.346,inactive: 0.033,inactive: 0.007,inactive: 0.096
PPIA (UniProt P62937),inactive: -0.048,inactive: 0.003,inactive: -0.004,inactive: -0.023,inactive: 0.001,inactive: 0.001,inactive: 0.041,inactive: 0.015,inactive: -0.01,inactive: 0.031
PNN (UniProt Q9H307),inactive: -0.08,inactive: -0.008,inactive: -0.028,active: -0.344,inactive: 0.062,inactive: -0.039,inactive: 0.028,inactive: 0.231,inactive: 0.255,inactive: -0.098
PPIA isoform 2 (UniProt P62937),inactive: 0.026,inactive: -0.074,inactive: -0.297,inactive: 0.026,inactive: 0.123,inactive: -0.146,inactive: -0.061,inactive: 0.001,inactive: 0.044,inactive: 0.14
PLIN2 (UniProt Q99541),inactive: -0.326,inactive: 0.037,inactive: 0.184,inactive: 0.03,inactive: -0.219,inactive: 0.04,inactive: -0.016,inactive: 0.047,inactive: -0.105,inactive: 0.027
PNO1 (UniProt Q9NRX1),inactive: 0.237,inactive: 0.077,inactive: -0.128,inactive: 0.14,inactive: 0.008,inactive: -0.005,inactive: -0.033,inactive: -0.068,inactive: -0.082,inactive: -0.004
POTEI (UniProt P0CG38),inactive: -0.052,inactive: -0.02,inactive: 0.046,inactive: -0.049,inactive: 0.087,inactive: 0.043,inactive: -0.005,inactive: -0.003,inactive: -0.019,inactive: 0.004
PNPT1 (UniProt Q8TCS8),inactive: 0.007,inactive: -0.009,inactive: -0.047,inactive: -0.018,inactive: -0.14,inactive: 0.037,inactive: 0.025,inactive: 0.024,inactive: 0,inactive: -0.018
POP7 (UniProt O75817),inactive: 0.104,inactive: -0.001,inactive: 0.043,inactive: -0.062,inactive: 0.051,inactive: -0.044,inactive: -0.077,inactive: -0.059,inactive: 0.014,inactive: -0.024
POLR3A (UniProt O14802),inactive: 0.009,inactive: 0.017,inactive: 0.186,inactive: -0.048,inactive: -0.184,inactive: -0.099,inactive: -0.066,inactive: 0.017,inactive: -0.015,inactive: -0.04
PPAN isoform 3 (UniProt Q9NQ55),inactive: 0.312,inactive: -0.052,inactive: -0.127,inactive: 0.081,inactive: 0.094,inactive: -0.068,inactive: -0.424,inactive: -0.272,inactive: 0.186,inactive: -0.02
POLR1C (UniProt O15160),inactive: 0.057,inactive: 0.007,inactive: -0.082,inactive: -0.12,inactive: -0.147,inactive: 0.008,inactive: 0.058,inactive: -0.022,inactive: -0.113,inactive: -0.072
PNPLA2 (UniProt Q96AD5),inactive: 0.084,inactive: -0.334,inactive: 0.049,inactive: -0.112,inactive: -0.113,inactive: -0.118,inactive: 0.056,inactive: 0.049,inactive: -0.026,inactive: 0.113
PNPLA8 (UniProt Q9NP80),inactive: -0.04,inactive: -0.13,inactive: 0.036,inactive: -0.026,inactive: -0.055,inactive: 0.038,inactive: 0.036,inactive: -0.063,inactive: 0.053,inactive: 0.095
PPM1B (UniProt O75688),inactive: -0.033,inactive: -0.04,inactive: -0.001,inactive: 0.032,inactive: -0.067,inactive: 0.003,inactive: 0.044,inactive: -0.057,inactive: -0.071,inactive: 0.06
PMPCA (UniProt Q10713),inactive: 0.063,inactive: 0.016,inactive: 0.024,inactive: 0.057,active: 0.54,inactive: -0.096,inactive: 0.067,inactive: 0.04,active: 0.285,inactive: 0.087
POM121 (UniProt Q96HA1),inactive: -0.114,inactive: 0.012,inactive: 0.135,inactive: 0,inactive: -0.051,inactive: -0.177,inactive: -0.081,inactive: -0.063,inactive: 0.021,–
PPIP5K1 (UniProt Q6PFW1),inactive: 0.02,inactive: -0.003,inactive: 0.078,inactive: -0.019,inactive: 0.03,inactive: -0.029,inactive: 0.045,inactive: 0.069,inactive: -0.017,inactive: 0.021
PODXL2 (UniProt Q9NZ53),inactive: -0.115,inactive: -0.071,inactive: 0.14,inactive: -0.015,inactive: -0.088,inactive: 0.111,inactive: -0.107,inactive: 0.069,inactive: 0.062,inactive: 0.026
PPCDC (UniProt Q96CD2),inactive: 0.02,inactive: 0.039,inactive: -0.063,inactive: 0.007,inactive: -0.007,inactive: 0.036,inactive: 0.051,inactive: -0.008,inactive: 0.004,inactive: 0.05
POLR3B (UniProt Q9NW08),inactive: 0.104,inactive: 0.045,inactive: -0.111,inactive: -0.285,inactive: -0.238,inactive: -0.028,inactive: -0.059,inactive: 0.089,inactive: -0.108,inactive: -0.086
POLR2B (UniProt P30876),inactive: 0.024,inactive: -0.005,inactive: 0.079,inactive: 0.054,inactive: -0.055,active: 0.324,inactive: -0.054,inactive: -0.006,inactive: -0.029,inactive: -0.014
POLDIP3 (UniProt Q9BY77),inactive: 0.03,inactive: -0.037,inactive: 0.014,inactive: -0.031,inactive: 0.109,inactive: 0.059,inactive: -0.108,inactive: -0.121,inactive: 0.043,inactive: -0.019
POP4 (UniProt O95707),inactive: 0.08,inactive: -0.066,inactive: -0.005,inactive: 0.015,inactive: 0.02,inactive: 0.003,inactive: 0.027,inactive: -0.083,inactive: -0.015,inactive: 0.038

# A second format for part of the listing above.
Target | log2 fold change (bafetinib) | log2 fold change [1] | log2 fold change (nilotinib) | log2 fold change [2] | log2 fold change (dasatinib) | log2 fold change [3] | log2 fold change [4] | log2 fold change [5] | log2 fold change (tipifarnib) | log2 fold change (mubritinib)
PNPO (UniProt Q9NVS9) | inactive: -0.063 | inactive: 0.048 | inactive: -0.015 | inactive: 0.021 | inactive: -0.038 | inactive: 0.064 | inactive: 0.037 | inactive: -0.041 | inactive: 0.009 | inactive: 0.009
POLD4 (UniProt Q9HCU8) | inactive: -0.005 | inactive: -0.064 | inactive: -0.03 | inactive: 0.113 | inactive: 0.011 | inactive: -0.033 | inactive: 0.346 | inactive: 0.033 | inactive: 0.007 | inactive: 0.096
PPIA (UniProt P62937) | inactive: -0.048 | inactive: 0.003 | inactive: -0.004 | inactive: -0.023 | inactive: 0.001 | inactive: 0.001 | inactive: 0.041 | inactive: 0.015 | inactive: -0.01 | inactive: 0.031
PNN (UniProt Q9H307) | inactive: -0.08 | inactive: -0.008 | inactive: -0.028 | active: -0.344 | inactive: 0.062 | inactive: -0.039 | inactive: 0.028 | inactive: 0.231 | inactive: 0.255 | inactive: -0.098
PPIA isoform 2 (UniProt P62937) | inactive: 0.026 | inactive: -0.074 | inactive: -0.297 | inactive: 0.026 | inactive: 0.123 | inactive: -0.146 | inactive: -0.061 | inactive: 0.001 | inactive: 0.044 | inactive: 0.14
PLIN2 (UniProt Q99541) | inactive: -0.326 | inactive: 0.037 | inactive: 0.184 | inactive: 0.03 | inactive: -0.219 | inactive: 0.04 | inactive: -0.016 | inactive: 0.047 | inactive: -0.105 | inactive: 0.027
PNO1 (UniProt Q9NRX1) | inactive: 0.237 | inactive: 0.077 | inactive: -0.128 | inactive: 0.14 | inactive: 0.008 | inactive: -0.005 | inactive: -0.033 | inactive: -0.068 | inactive: -0.082 | inactive: -0.004
